Reference: patent publication US20220119450A1
Results are given in words; binding and its absence hold for the method and conditions named. Some entries that bind do so weakly or less than the wild type. Sequences can lack the tags named with a protein.

What was measured:
[1] = biological target: T1, recombinant His-tagged Neuropilin-1 b1b2 domain (UniProt O14786); experiment: T7 phage binding to purified protein
T1 sequence (looked up): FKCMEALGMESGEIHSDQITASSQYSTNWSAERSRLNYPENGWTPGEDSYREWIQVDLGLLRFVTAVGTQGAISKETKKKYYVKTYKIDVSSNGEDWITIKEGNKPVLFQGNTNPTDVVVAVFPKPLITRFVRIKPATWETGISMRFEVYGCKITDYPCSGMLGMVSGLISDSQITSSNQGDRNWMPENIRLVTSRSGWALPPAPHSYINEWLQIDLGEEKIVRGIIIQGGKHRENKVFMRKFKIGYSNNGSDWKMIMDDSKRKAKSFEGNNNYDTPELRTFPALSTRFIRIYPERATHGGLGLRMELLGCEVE

[2] = biological target: T1, recombinant His-tagged Neuropilin-1 b1b2 domain; experiment: summary in the discussion
[3] = biological target: T1, recombinant His-tagged Neuropilin-1 b1b2 domain; experiment: summary of phage binding experiments
[4] = biological target: T1, recombinant His-tagged Neuropilin-1 b1b2 domain; experiment: in vitro binding to NRP1 protein
[5] = biological target: T1, recombinant His-tagged Neuropilin-1 b1b2 domain; experiment: nanoparticle binding to recombinant protein

B1: PL2 peptide displayed on T7 phage (TSKQNSR) (peptide)
peptide: TSKQNSR
In the case of B1, the binding [1] is reported as “binds”.

B2: PL3 peptide displayed on T7 phage (AGRGRLVR) (peptide)
peptide: AGRGRLVR
For B2, the binding [2] was “binds”, the binding [1] was “binds” and the binding [3] was “binds”. For the same binder, the binding [4] was “binds”.

B3: PL3-functionalized silver nanoparticles (biotinylated PL3 peptide on NeutrAvidin-coated AgNPs) (peptide)
peptide: AGRGRLVR
modifications: biotinylated; bound to NeutrAvidin on dye-labeled PEGylated silver nanoparticles
For B3, the binding [5] was “binds”.
